This passage reports growth estimate results from the supplement of paper PMC5949888.

Most values lie at the floor of the assay. Slopes are relative: functional sequences can read slightly below zero.

The data set relates to Saccharomyces cerevisiae PS128 hsf1 delta, HSF1(1-493) fusion. The data set is described as follows: growth estimate (transactivation domain function in HSF1 fusion, heat-shock survival) (a.u. (slope of normalised read count over time)); higher = stronger growth at 37°C, i.e. more transactivation activity. The settings on record: library: random library.
As for RPML, the growth estimate is below -0.25.
Take HYAMWGVEFNTLM: the growth estimate is below -0.25.
With LFIRLGAVGDVQLFHDGARG the figure was below -0.25.
To VLTRKEEGNKTPYRVCIPYA belongs below -0.25.
FGNTCALLYYL: the growth estimate was below -0.25.
With PMAKVGAFLRRTTQPN the figure was below -0.25.
To WGPTSYCRKQVTSGYLSQLV belongs below -0.25; to ASKFGHRIMDT, -0.229; to LKDWICLLRSKRRSHILNRF, below -0.25.
In the case of GTLACYLGVEKAKGTDVNRK, the growth estimate is below -0.25.
In the case of ARHFTAGSNCVTRIGGVTDY, the growth estimate was below -0.25.
As for RNTRVESLTGP, the growth estimate was below -0.25.
Regarding LVANSAQGSGRNGIGGVRMT, the growth estimate was below -0.25.
With VSDKFLILAMG the figure was below -0.25; with ASTWGTLDLCGYMHIGLLKS, below -0.25; with SNKLNVDCLKFSQATTQSGP, below -0.25.
With DFGVRVVGLQRCLRLRQRYW the figure was below -0.25; with MQLGPSSSVHRPRASHPSTP, below -0.25; with RRRCILRHYELSSWSTVPGY, below -0.25.
On to LHPPSVARCCGVAITLQVVA, for which the growth estimate was below -0.25.
With RFWADRTEIK the figure was below -0.25; with VSHCDTLALTHRSWRRICNE, below -0.25; with LDNGPWRTKFQEPSSTVSAL, below -0.25.
Take GLRWRFSARDFRTFYM: the growth estimate was below -0.25.
As for SYARRYGWDE, the growth estimate was below -0.25.
Turning to CPKAFECG, the growth estimate was below -0.25.
CLRSSLLVCVETALAWFH: the growth estimate was below -0.25.
As for GVSSWVGA, the growth estimate is below -0.25.
With SDCDRPARIDEV the figure was below -0.25; with PSYARQSS, below -0.25.
In the case of SWILSTFYRKW, the growth estimate was below -0.25.
ETPATLNMS: the growth estimate was -0.243.
Regarding VATRGSPCRGRQRADTTIGS, the growth estimate is below -0.25.
To RRMQRGVYS belongs below -0.25.
With KPGSAPGIFVNKLRYVCALM the figure was below -0.25.
With KLLPKRSRPGAPVVGHTLRF the figure was below -0.25; with DSVEEKWIL, below -0.25; with CATRRNSLFLTSTTFHSACI, below -0.25.
In the case of LHR, the growth estimate was below -0.25.
With GNVWPKPYYILRRPKKPSLR the figure was below -0.25; with CNQHAV, below -0.25.
In the case of GSRPLARINYTLG, the growth estimate is below -0.25.
To GSGCQAPLERGDLEMGQPKP belongs below -0.25.
With APARKPDDTKVLERCLGKSV the figure was below -0.25; with GFGNGTEREVTLPDPAFRVC, below -0.25; with DGSLVLPKVHYRA, below -0.25.
For TALRCIGRLGICPSISASSK, the growth estimate was below -0.25.
With RACKLQGYWRVWSACCDVYS the figure was below -0.25; with RHWFNPRKNHSRWCWLKTMP, below -0.25.
To KLAAQLSVVSALKATIMAMV belongs below -0.25; to NIPVCTTLGPMVANQV, -0.204; to LRKRDRGAASFTALGFRLRY, below -0.25.
With FIVLV the figure was below -0.25.
Turning to RQGRLYTLVGKNSRSLRVPA, the growth estimate was below -0.25.
Take VVSKNRGRVGGFEMQSNQKP: the growth estimate was below -0.25.
Take SQVWCAG: the growth estimate was -0.245.
On to EDFDQCGSEVWL, for which the growth estimate was 0.163.
With SMPVSGG the figure was below -0.25; with QSRYGMESKW, below -0.25; with PSLLHEPLNPALGVPHRGPI, below -0.25.
With SMAGVGTDDRHWG the figure was below -0.25; with GDRGGARLLGIFTVEF, below -0.25.
With PKAGDCALSWPGSYSSWPKL the figure was below -0.25; with AGSKLQREFPTLPWVVYDGP, below -0.25; with LPTRTAEVGKHRALLVY, -0.196.
Take HVSVSDYRV: the growth estimate is below -0.25.
To TVEKPITWVLDEK belongs below -0.25.
With PPTGSRGYKRI the figure was below -0.25.
To VAVRKLPWAQHRTLRRLSVR belongs below -0.25.
For the substance PQGKVPLTFHEWTNRYRSA, the growth estimate is below -0.25.
With KYESGPVKRT the figure was below -0.25.
With VTLLREPRPTQSIFSLRGRA, the growth estimate is below -0.25.
With RGKSLSRLSWLGFTVVHGAL the figure was below -0.25.
On to GSDPQG, for which the growth estimate is below -0.25.
To SYP belongs below -0.25.
With LEMWAFLSCVESVRGDDIRC the figure was below -0.25.
To TLTSSHRTIIICRQAIIQDS belongs below -0.25; to GQIFTRFMVFDRTVGWQDNS, below -0.25.
